From PubChem BioAssay AID445 (National Center for Advancing Translational Sciences (NCATS), 2006)
This is one part of the list. Further columns of the screen follow, without active or inactive calls. Most of these compounds were active or inconclusive in the main read-out, so they are no random draw. Potencies come from curve fits of mixed quality, noted in brackets.

assay: IkB Signaling; details: ABC-DLBCL IkBa-CBG/CBR dual luciferase ratio (green luciferase fused to IkBa over red control in OCI-Ly3 lymphoma cells), 4 h; measured here: control luc red channel unless noted
Summary of the method: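 Curves were fitted separately to fusion (green), unfused (red) and ratio luminescence, then classed by r2, magnitude and activity. Cells: OCI-Ly3, 4 h compound plus doxycycline at 37C; 10 uM MG-132 defined full response.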

| Structure (SMILES) | AC50 |
| --- | --- |
| COc1cccc(OCc2nc3ccccc3n2CCOc2ccc(C)cc2)c1 | 20 µM [falling, partial curve] |
| Cn1c(=O)oc2cc(S(=O)(=O)NC(Cc3ccccc3)C(=O)Nc3ccc(F)cc3)ccc21 (configuration not stated) | 12.6 µM [falling, partial curve] |
| O=C(CSc1ncn(-c2ccccc2)n1)Nc1ccc(Br)cn1 | 39.8 µM [falling, single point] |
| CCC(CC)C(=O)OCc1cc(=O)n2nc(C3CC3)sc2n1 | 5.01 µM [rising, full curve] |
| CC1=C(c2ccc(Cl)cc2)S(=O)(=O)NC1=NCCCN1CCN(c2cc(C)ccc2C)CC1 | 25.1 µM [falling, single point] |
| O=C(CCCn1c(=O)c2cccn2c2ccccc21)Nc1cc(C(F)(F)F)ccc1Cl | 0.1 µM [rising, full curve] |
| CC1C(=O)Nc2ccc(S(=O)(=O)N3CCCCC3)cc2NC1=O (configuration not stated) | 39.8 µM [falling, single point] |
| CCOC(=O)c1cc(-c2ccc(OC)cc2)n(CCC(=O)Nc2ccccc2OC)c1C | 39.8 µM [falling, partial curve] |
| CCOc1ccccc1NC(=O)CN1C(=O)COc2ccc(S(=O)(=O)N3CCOCC3)cc21 | 12.6 µM [falling, partial curve] |
| CCOc1ccc(NCc2cccn2-c2nnc(N3CCC(C(=O)NCC(C)c4ccccc4)CC3)s2)cc1 (configuration not stated) | 15.8 µM [falling, partial curve] |
| COc1ccc(C2c3c(-c4ccccc4O)n[nH]c3C(=O)N2CCc2ccc(OC)c(OC)c2)cc1 (configuration not stated) | 12.6 µM [falling, partial curve] |
| CCN(c1ccccc1)S(=O)(=O)c1ccc(NC(=O)c2nc(SC)ncc2Cl)cc1 | 10 µM [falling, partial curve] |
| CCN(CC)c1ccc(NC(=O)C2CCN(c3nnc(-n4cccc4)s3)CC2)c(C)c1 | 31.6 µM [falling, partial curve] |
| O=c1c2sc3ccccc3c2n(Cc2cccc(F)c2)c(=O)n1Cc1ccccc1 | 15.8 µM [falling, single point] |
| O=C(NCc1cccs1)c1ccc2c(=O)n3nc(Nc4ccccc4)sc3nc2c1 | 39.8 µM [rising, single point] [measured here: IkB-luc green channel] |
| Cc1ccc2c(c1Br)C(O)(CC(=O)c1ccc(F)cc1)C(=O)N2 (configuration not stated) | 3.16 µM [falling, partial curve] |
| COc1ccccc1N(C(=O)NCc1ccccc1)C1=NCC(C)S1 (configuration not stated) | 31.6 µM [falling, single point] |
| CCOC(=O)c1ccc(N2C(=O)c3[nH]nc(-c4ccccc4)c3C2c2ccc(CC)cc2)cc1 (configuration not stated) | 15.8 µM [falling, partial curve] |
| Cc1c(Cl)cccc1NC(=O)CC1Oc2ccccc2NC1=O (configuration not stated) | 25.1 µM [falling, single point] |
| O=C(c1ccc2c(c1)N(Cc1ccccc1F)C(=O)c1ccccc1S2(=O)=O)N1CCC(Cc2ccccc2)CC1 | 10 µM [falling, partial curve] |
| COc1ccc(NC(=O)CSc2nc3ccccc3c(=O)n2CCC(=O)N2CCCCC2)cc1 | 10 µM [falling, partial curve] |

A different layout for some results above:
COc1cccc(OCc2nc3ccccc3n2CCOc2ccc(C)cc2)c1
  AC50: 20 µM [falling, partial curve]
Cn1c(=O)oc2cc(S(=O)(=O)NC(Cc3ccccc3)C(=O)Nc3ccc(F)cc3)ccc21 (configuration not stated)
  AC50: 12.6 µM [falling, partial curve]
O=C(CSc1ncn(-c2ccccc2)n1)Nc1ccc(Br)cn1
  AC50: 39.8 µM [falling, single point]
CCC(CC)C(=O)OCc1cc(=O)n2nc(C3CC3)sc2n1
  AC50: 5.01 µM [rising, full curve]

Going on with the list:

| Structure (SMILES) | AC50 |
| --- | --- |
| CC(C)c1ccc(Cn2c(COc3ccccc3)nc3ccccc32)cc1 | 20 µM [falling, partial curve] |
| CCn1nc(C)c2c(-c3ccccc3)cc(=O)n(C(C)C(=O)NCCC(C)C)c21 (configuration not stated) | 39.8 µM [falling, single point] |
| CC(=O)Nc1ccc(NC(=O)CCc2nc3cccnc3n2Cc2cccs2)cc1 | 39.8 µM [falling, partial curve, poor fit] |
| CC1CCN(Cc2c(O)ccc3c(=O)c(Oc4ccccc4Cl)c(C(F)(F)F)oc23)CC1 | 39.8 µM [falling, single point] |
| CSc1nsc(SC)c1NC(=O)OC1CCCCC1 | 20 µM [falling, partial curve] |
| COc1ccc(NC(=O)CC2C(=O)N(c3cccc(OC)c3)C(=O)N2CCc2cccs2)cc1 (configuration not stated) | 39.8 µM [falling, single point] |
| Cc1ccc(NC(=O)Cn2c(=O)n(Cc3nc(-c4ccccc4)no3)c(=O)c3cc4c(cc32)OCO4)cc1F | 15.8 µM [falling, single point] |
| O=C(Nc1cc(-c2nc3ccccc3o2)ccc1Cl)c1sc2c([N+](=O)[O-])cccc2c1Cl | 1.58 µM [rising, partial curve, poor fit] |
| CCOc1ccc(CN2CCc3nc(N4CCN(c5ccccc5OC)CC4)ncc3C2)cc1OC | 0.0316 µM [rising, full curve, poor fit] |
| CC(C)(C)OC(=O)N1CCC(c2c(C(=O)NCc3cccc(Cl)c3)cnn2-c2ccc(F)cc2)CC1 | 7.94 µM [falling, partial curve] |
| COc1ccc(-n2c(-c3ccc(C)cc3)cc3c2CC(C)(C)CC3=O)cc1Cl | 15.8 µM [falling, partial curve] |
| COc1ccc(-c2nc(SCC(=O)NC3CCCC3)c(-c3ccc(F)cc3)[nH]2)cc1 | 25.1 µM [falling, partial curve] |
| COc1ccccc1Cn1c(CNS(=O)(=O)c2ccc(C(C)C)cc2)nc2cccnc21 | 39.8 µM [falling, single point] |
| O=C(c1ccc2c(c1)N(Cc1ccc(F)cc1)C(=O)c1ccccc1S2(=O)=O)N1CCCC1 | 10 µM [falling, partial curve] |
| COc1ccc(CNC(=O)c2nc(SCc3ccccc3F)ncc2Cl)cc1 | 10 µM [falling, partial curve] |
| CC(NC(=O)c1ccc2c(c1)CCN2S(=O)(=O)c1ccccc1)c1ccccc1 (configuration not stated) | 15.8 µM [falling, single point] |
| Fc1ccccc1Cc1cn2cc(-c3ccc(Cl)cc3)nc2s1 | 0.316 µM [falling, full curve] |
| O=c1c2ccccc2sn1-c1cc(S(=O)(=O)N2CCOCC2)ccc1N1CCOCC1 | 25.1 µM [falling, partial curve] |
| O=C(c1nn(Cc2ccccc2)c(=O)c2ccccc12)N1CCN(c2ccccn2)CC1 | 12.6 µM [falling, partial curve] |
| COc1ccc(-n2c(C)c(C(C)=O)c3cc(OC(=O)COc4ccccc4)ccc32)cc1 | 15.8 µM [falling, partial curve] |
| Cc1cc(C)cc(OCC(=O)N(Cc2cccs2)c2ccc(Cl)cc2)c1 | 39.8 µM [falling, single point] |

| Structure (SMILES) | AC50 |
| --- | --- |
| Cc1cc(-c2ccc(C)c(S(=O)(=O)NCc3cccc(Br)c3)c2)on1 | 31.6 µM [falling, partial curve] |
| CC(C)CCNc1nc2c(c(=O)n(Cc3cccc(F)c3)c(=O)n2C)n1C | 20 µM [falling, partial curve] |
| CCCCCn1c(CCNC(=O)c2ccc(F)cc2)nc2ccccc21 | 25.1 µM [falling, partial curve] |
| Fc1ccc(-c2nn(-c3ccccc3Cl)c3c2cnc2ccccc23)cc1 | 39.8 µM [falling, single point] |
| Cc1ccc2onc(CC(=O)N3CCN(c4cc(Cl)ccc4C)CC3)c2c1 | 31.6 µM [falling, single point] |
| Cc1ccc(CNC(=O)Cc2c(C)c3c(cc(C)c4c(C)coc43)oc2=O)cc1 | 3.16 µM [rising, single point] |
| CCCc1nc2sc3ccccc3c(=O)c2c(=O)n1Cc1ccco1 | 1 µM [falling, partial curve] |
| COc1cccc(C(=O)c2c(N)c(-c3nc(-c4ccccc4)cs3)c3ccccn23)c1 | 3.16 µM [falling, partial curve] |
| Cc1cccc(-n2c(=O)c3c(c4cc(C)ccc4n3C)n(CC(=O)N3CCCC3)c2=O)c1 | 31.6 µM [falling, single point] |
| O=C(CN1C(=O)COc2ccccc21)NCCc1ccc(Cl)cc1 | 39.8 µM [falling, single point] |
| Cc1ccc(CNC(=O)c2ccc(NC(=O)N3CCSc4ncccc43)cc2)cc1 | 10 µM [falling, partial curve] |
| Cc1cccc(C)c1OCCCn1c(CCNC(=O)C2CCCCC2)nc2ccccc21 | 25.1 µM [falling, partial curve] |
| CCOc1ccccc1NC(=O)c1nc(SC(C)C)ncc1Cl | 39.8 µM [falling, single point] |
| CCc1ccc(NC(=O)CN2C(=O)C(c3ccc(Cl)cc3)=NC23CCCCC3)cc1 | 12.6 µM [falling, partial curve] |
| O=C1/C(=C/c2ccccc2)[C@@H](NC2CCCCC2)c2ccccc21 | 3.98 µM [falling, partial curve] |
| Cc1cccc(/C=C(\C#N)c2nc3ccccc3c(=O)[nH]2)c1 | 10 µM [falling, partial curve] |
| COc1ccc(N2CCN(CCCNC(=O)c3cc(Nc4ccc(OC)cc4OC)nc4ccccc34)CC2)cc1 | 20 µM [falling, partial curve] |
| O=C(CCS(=O)(=O)c1ccccc1)N(Cc1cccnc1)c1nc2ccc(Cl)cc2s1 | 12.6 µM [falling, partial curve, poor fit] |
| COC(=O)C1=C(C)N(c2ccc(Cl)c(Cl)c2)C(=O)C1 | 1.58 µM [falling, full curve] |
| CCCN1Cc2cccc(C(=O)Nc3ccc(C(C)=O)cc3)c2C1=O | 0.794 µM [rising, full curve] |
